According to PubChem BioAssay AID1347076 (National Center for Advancing Translational Sciences (NCATS), 2019):
Among all 400,000 compounds or so, about 13,000 (3.2%) were called active. Inconclusive means that the source gave no clear call. Such entries were picked first, then a sample of the others. Calls come from the whole dose curve; as a rule, active = well fitted cell-killing curve with a large enough effect; inconclusive = small, poorly fitted or top-dose-only effect, or effect the other way; inactive = flat fitted curve, though single readings scatter. Potencies of inconclusive entries are doubtful fits and often do not repeat.

Assay: qHTS assay for MDR1-selective chemotherapeutics: Primary screen using the drug-selected MDR subline cells KB-V1; note: nearly all actives have a fitted effect of over 60% in size
Details: KB-V1 MDR cells viability, CellTiter-Glo, 72 h; series mostly up to 46.1 µM
How it was run: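 KB-V1, DMEM (no phenol red) + 10% FBS; cpd pin-transferred, titration series; 72 h, 37 degrees C; CellTiter-Glo, luminescence. Data normalized, curve-fit.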
Potency is the fitted concentration of half-maximal effect.

SMILES	Potency
O=C(Nc1cccc(S(=O)(=O)N2CCCCCC2)c1)c1ccc(Cl)nc1	inactive
COc1cccc(C(C(=O)NC2CCCCC2)N(CCN2CCOCC2)C(=O)C2COc3ccccc3O2)c1 (configuration not stated)	inconclusive: 23.1 µM [cytotoxic, partial curve, poor fit]
CC(=O)Nc1cccc(-c2ccnc3c2CC(C(=O)Nc2cccc(N(C)C)c2)O3)c1 (configuration not stated)	inconclusive: 20.6 µM [cytotoxic, single point]
O=C(NCC(=O)N1CCN(S(=O)(=O)c2ccccc2F)CC1)c1ccc2c(c1)OCO2	inactive
Cc1[nH]n(-c2ccccc2)c(=O)c1C(=O)c1ccc([N+](=O)[O-])cc1	inconclusive: 18.4 µM [cytotoxic, single point]
C=CCn1c(=O)c(C(=O)NCc2ccccc2Cl)c(O)c2ccccc21	inactive
Cc1nc(NC(=O)c2cccc(-c3cc4ccccc4oc3=O)c2)ccc1Br	inconclusive: 18.4 µM [cytotoxic, single point]
CC(NC(=O)C1=CC=CN2CCS(=O)(=O)N=C12)c1ccc(Cl)cc1Cl (configuration not stated)	inactive
CCCCCCn1c(=O)n2n(c1=O)[C@@H]1CN(S(=O)(=O)c3ccc(C)cc3)C[C@]1(O)[C@@H](OC(=O)NC1CC1)C2	inconclusive: 0.58 µM [rising, partial curve, poor fit]
C=CCn1c(O)c2ccc(C(=O)N=NC(=O)COc3ccc(OC)cc3)cc2c1O	inconclusive: 29.1 µM [rising, single point]
CNc1ncnc2c1ncn2-c1ccccc1	inconclusive: 29.1 µM [cytotoxic, single point]
CC(=O)N1CCC2(CC1)CC(=O)c1cc(OCC(=O)NCc3ccc(C)cc3)ccc1O2	active: 18.4 µM
CCN(CC)CCN(C(=O)/C=C/c1cccs1)c1nc2ccc(F)cc2s1	inactive
C/C(CC(=O)Nc1ccc(Cl)c(Cl)c1)=N\NC(N)=S	inactive
CC(C)N(C(=O)[C@H]1C[C@H](CC(=O)NCC23CC4CC(CC(C4)C2)C3)C(=O)N2CCc3c([nH]c4ccc(Cl)cc34)[C@]12C)C(C)C	inconclusive: 29.1 µM [cytotoxic, single point]
CCOc1ccccc1CNC(=O)c1ccc(NC(=O)N2CC(C)Sc3ccccc32)cc1 (configuration not stated)	inconclusive: 20.6 µM [cytotoxic, single point]
Cc1cccc(C(=O)c2c(N)sc3c2CCC(C)C3)c1 (configuration not stated)	inconclusive: 29.1 µM [cytotoxic, single point]
COc1cc(C(=O)NCC(=O)N/N=C/c2cccs2)cc(OC)c1OC	inconclusive: 20.6 µM [rising, single point]
O=C(c1ccc(OCC2CCCO2)cc1)N1CCN(S(=O)(=O)c2cccc(F)c2)CC1 (configuration not stated)	inconclusive: 10.3 µM [cytotoxic, partial curve]
O=C(CSc1nnnn1C1CCCCC1)N1CCCC1	inconclusive: 23.1 µM [cytotoxic, partial curve]
COc1cccc2c1Oc1ncccc1N(C(=O)CCC(=O)NCc1ccc(F)cc1)C2	inactive
FC(F)(F)Oc1ccccc1C(c1nnnn1Cc1ccccc1)N1CCN(C/C=C/c2ccccc2)CC1 (configuration not stated)	inconclusive: 20.6 µM [cytotoxic, single point]
CSCCC(NC(=O)c1ccccc1)C(=O)N1CCN(C(=O)c2ccccc2)CC1 (configuration not stated)	inactive

An excerpt from further up, as a working copy:
SMILES	Potency
C=CCn1c(=O)c(C(=O)NCc2ccccc2Cl)c(O)c2ccccc21	inactive
Cc1nc(NC(=O)c2cccc(-c3cc4ccccc4oc3=O)c2)ccc1Br	inconclusive: 18.4 µM [cytotoxic, single point]

Further structures

SMILES	Potency
CC(=O)c1ccc(OCCCC(=O)OCC(=O)Nc2ccc3[nH]c(=O)[nH]c3c2)cc1	inactive
N#CCc1c(C#N)c(N)nc(N2CCN(Cc3ccc4c(c3)OCO4)CC2)c1C#N	active: 20.6 µM
Cc1cccc(C(=O)OCC(=O)N(C)c2ccccc2)c1C	inactive
COc1ccc(-c2cc(-c3c(O)c(OC)c4occc4c3OC)[nH]n2)cc1	active: 13 µM
CC(C)(C)c1ccc(C(=O)Nc2ccccc2NC(=O)c2ccco2)cc1	inconclusive: 29.1 µM [cytotoxic, single point]
CCOC(=O)C1=CCN(S(=O)(=O)c2ccccc2F)C1c1cccc(C)c1 (configuration not stated)	inactive
COCCNS(=O)(=O)c1ccc(-c2ccc(S(=O)(=O)NCCOC)cc2)cc1	inconclusive: 18.4 µM [cytotoxic, single point]
CCCOc1cccc(NC(=O)c2c(-c3ccccc3)noc2C)c1	inactive
Cc1ccc2nc(Nc3nc(CSc4nnc(C)s4)cc(=O)[nH]3)nc(C)c2c1	active: 23.1 µM
O=C1N(Cc2cccc(Cl)c2)C[C@@H]2C[C@@H](c3cccn3-c3cccnc3)N3CCC[C@@]123	inconclusive: 16.4 µM [cytotoxic, single point]
CCOc1ccc(/C=N/Nc2cc(N3CCOCC3)ncn2)c(O)c1	inactive
CCOc1ccc(-n2c(SCc3ccc(C#N)cc3)nnc2-c2cccnc2)cc1	inconclusive: 2.31 µM [cytotoxic, partial curve, poor fit]
O=C(CCn1c(=O)[nH]c2ccccc2c1=O)N1CC=C(c2ccccc2)CC1	inconclusive: 18.4 µM [cytotoxic, single point]
CC1(C(=O)NCc2ccc(F)c(F)c2)Cc2c(-c3cccc(C(N)=O)c3)ccnc2O1 (configuration not stated)	inactive
CCN(CC)c1ncnc2c1ncn2Cc1c(Cl)cccc1Cl	inconclusive: 10.3 µM [cytotoxic, partial curve, poor fit]
COc1ccc(OC)c(CNC(=O)CN(c2ccc(C)cc2)S(=O)(=O)N(C)C)c1	inactive
CCC1Oc2ccc(C)cc2N(Cc2cccc(C)c2)C1=O (configuration not stated)	inactive
COCCNC(=O)c1cccc2c1-c1ccccc1C2=O	inconclusive: 29.1 µM [rising, single point]
O=C(Nc1ccc2c(c1)OCCO2)c1ccc(Br)c(S(=O)(=O)N2CCOCC2)c1	inconclusive: 20.6 µM [cytotoxic, single point]
Cc1cccc(N2CCN(c3ccc(C(=O)O)cc3NC(=O)c3cccc(Cl)c3)CC2C)c1 (configuration not stated)	inconclusive: 11.6 µM [rising, partial curve, poor fit]
O=S(=O)(c1cccc(F)c1)N1CCc2sccc2C1c1ccc(OC(F)(F)F)cc1 (configuration not stated)	inconclusive: 29.1 µM [cytotoxic, single point]
O/N=C/c1ccc(-c2ccccc2OC(F)(F)F)o1	inconclusive: 23.1 µM [cytotoxic, single point]
CCOC(=O)c1c(NC(=O)C2=C(C)NC(=S)NC2c2ccccc2C(F)(F)F)sc(C)c1C (configuration not stated)	inconclusive: 13 µM [cytotoxic, partial curve]

SMILES	Potency
CN1C[C@@H]2[C@@H]3C(=O)N(Cc4ccccc4)C(=O)[C@@H]3[C@](Cc3ccccc3)(C1=O)N2C(=O)c1ccc(C(F)(F)F)cc1	inconclusive: 32.6 µM [rising, single point]
CN1CCN(C(=O)C2=C[C@@H](c3ccc(C(F)(F)F)cc3)C[C@@H](OCc3ccc(CO)cc3)O2)CC1	inconclusive: 0.411 µM [rising, full curve]
OC[C@@H]1CN(Cc2ccc(F)cc2)C[C@H](n2cnc3c(N4CCN(c5ccccc5)CC4)ncnc32)O1	inconclusive: 20.6 µM [cytotoxic, single point]
CCOC(=O)C1CCN(c2c(C(=O)c3ccc(OC)cc3)cnc3ccccc23)CC1	inconclusive: 29.1 µM [cytotoxic, single point]
COc1cc(CN(C)C(=O)C(=O)c2c[nH]c3ccccc23)ccc1O	inconclusive: 20.6 µM [cytotoxic, single point]
O=C(CSc1ccccc1)Nc1nc2ccccc2[nH]1	inconclusive: 29.1 µM [cytotoxic, single point]
CC(C)CC(=O)NC(=S)Nc1sc2c(c1C(N)=O)CCC2	inconclusive: 0.366 µM [cytotoxic, full curve]
CCS(=O)(=O)Nc1ccc(C2=NN(C(=O)c3ccco3)C(c3cccs3)C2)cc1 (configuration not stated)	inconclusive: 29.1 µM [cytotoxic, single point]
COc1cccc(C2=CC(=O)C[C@H](c3ccc(Cl)cc3)C2)c1OC	inactive
CC1(C(=O)NCCc2c[nH]c3ccccc23)CCN1Cc1ccccc1OC(F)F (configuration not stated)	inactive
O=C(Nc1cc2c(cc1C(=O)c1cccc(Br)c1)OCCO2)c1ccccc1F	inconclusive: 6.51 µM [cytotoxic, partial curve]
CC(=O)Nc1ccc(N2CCN(Cc3ccccc3F)CC2)cc1	inactive
O=C(O)c1cccc(N=NN2CCCCCC2)c1	inconclusive: 9.2 µM [rising, partial curve]
CCOc1ncccc1C(=O)N1CCN(S(=O)(=O)c2ccccc2)CC1	inactive
CN(C(=O)Cn1cnc2onc(-c3ccc(F)cc3)c2c1=O)c1ccccc1Cl	inactive
COc1cccc(/C=N/NC(=O)c2ccc(CN3c4cccc5cccc(c45)S3(=O)=O)cc2)c1	inconclusive: 23.1 µM [cytotoxic, partial curve, poor fit]
O=C(NNC(=O)c1cc(OCC(F)(F)F)ccc1OCC(F)(F)F)c1cccc(C(F)(F)F)c1	inconclusive: 29.1 µM [cytotoxic, single point]
Cc1ccc(C(=O)N(Cc2cccs2)C2CCS(=O)(=O)C2)cc1 (configuration not stated)	inactive
Cc1ccc(-n2c(=O)c3ccc(C(=O)NCc4ccco4)cc3n(CC(=O)Nc3ccccc3C(F)(F)F)c2=O)cc1	inconclusive: 9.2 µM [rising, partial curve, poor fit]
Cc1cc(N2CCCC2)ccc1NC(=O)COc1ccc(Cl)cc1	inconclusive: 29.1 µM [cytotoxic, single point]
COCCNc1nc(NCc2cccc(OC)c2)c2sccc2n1	inconclusive: 3.66 µM [cytotoxic, full curve]
